Earlier results on one compound are cited in patent publication US20050186271A1, “Process for dispersing a fluid in a mass of solid particles” (priority 2004, published 2005).

Structures can show the parent of a compound that is named as a salt.

Regarding `CN(C)CCOC(c1ccccc1)c1ccccc1` [Diphenhydramine HCl], the “Amount that dissolves in 1 mL water” value is given as 1 g.
